Measured values reported in patent US5091368A, “Biologically active compounds from blue-green algae” (Harbor Branch Oceanographic Institution, Inc., priority 1990, dated 1992).
At least one compound was matched to its structure with a doubt left.

System: combined murine splenocyte suspensions from BALB/c and C57BL/6J mice
Assay: Mixed lymphocyte reaction (MLR), 3H-thymidine incorporation
Format: cell-based
Procedure: 1. Murine splenocyte suspensions were prepared separately from BALB/c and C57BL/6J mice. Spleens were aseptically removed and homogenized in RPMI-1640 tissue culture medium (TCM), supplemented with 10% fetal calf serum, 2% 1-glutamine, 15 mM HEPES, 1% antibiotic-antimycotic solution, and 25 μg/ml gentamicin (GIBCO). The cell concentrations were adjusted to 2.5 ×10^6 cells/ml. Aliquots of each cell population were removed to separate tubes, and the remaining two cell suspensions combined to one tube.
3. A volume of 0.2 ml of the combined splenocyte suspensions was added to triplicate test wells. Positive control wells received combined splenocyte suspensions in the absence of the test extracts/compounds. Negative control wells consisted of separate (not mixed) splenocyte suspensions cultured in the absence of the test compounds.
4. Plates were incubated in 5% CO2 at 37° C. for 86 hours.
5. A volume of 0.05 ml of ^3 H-thymidine (20 μCk/ml) was added to each well, and the plates were incubated in 5% CO2 at 37° C. for an additional 5 hours.
6. The contents of each well of the microtiter plates were harvested onto glass fiber filter strips, and the resulting filter discs placed in scintillation vials to which 2.0 ml of scintillation fluid was added.
7. The amount of incorporated ^3 H-thymidine was determined by counting the vials in a liquid scintillation counter.
8. Triplicate counts were averaged, and the data reported as a percentage of the positive control.

SMILES: CCCC[C@@H](C)C[C@@H](C)C(=O)N(C)[C@@H](CC(C)C)C(=O)N[C@H](C(=O)N(C)[C@H](C(=O)N1C[C@@H](O)C[C@H]1C(=O)N1C(=O)C=C[C@@H]1C)C(C)C)[C@H](C)OC(C)=O [Microcolin A, microcolin A]
- Immunomodulatory classification (MLR with LCV) (2.5 ng/ml): ID (immunosuppressive (corresponding LCV values must be 70% of control (no drug) or greater))
- Immunomodulatory classification (MLR with LCV) (5.0 ng/ml): ID (immunosuppressive (corresponding LCV values must be 70% of control (no drug) or greater))
- Immunomodulatory classification (MLR with LCV) (10.0 ng/ml): ID (immunosuppressive (corresponding LCV values must be 70% of control (no drug) or greater))
- Immunomodulatory classification (MLR with LCV) (20.0 ng/ml): ID (immunosuppressive (corresponding LCV values must be 70% of control (no drug) or greater))
